Measurements reported in PubChem BioAssay AID504793 (Drosophila RNAi Screening Center, 2011).

Purpose: 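Whole-genome screen for parts of the DNA damage checkpoint at G2/M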 (primary screen)
System: Drosophila S2R+ cells
Reagents: long dsRNA against Drosophila genes, about 0.25 µg dsRNA per well
Timing: 4 days of dsRNA, then 4 hours of drug before read-out
Conditions: doxorubicin 0.5 µM for 4 hours to cause double-strand breaks, in cells also given a low, harmless dose of dsRNA against nbs to sensitise the assay
Read-out: 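Per-well count of mitotic cells stained for phospho-histone H3 after doxorubicin exposure, used as mitotic index; counts are raw and not normalised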
Reading the numbers: mitotic cells: higher = more cells in mitosis, weaker G2 arrest
Call rule: 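a call needs confirmation in secondary tests, with other dsRNAs and a check of mitotic timing without damage, not just a high primary count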
Calls: active = confirmed in follow-up tests; inactive = not confirmed
The deposit covers about 23,000 reagents; below is a random part of those with a known target gene and a result. Of all reagents, 62 (0.27%) are marked active. 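Calls come from follow-up tests whose scores are not deposited, so confirmed genes may have low counts here; counts are not normalised per plate.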 Raw values vary from plate to plate and are shown uncorrected. Names joined by + are all predicted targets of the reagent.

gene knocked down	DRSC id	mitotic cells, replicate 1	mitotic cells, replicate 2	call
CG5377	DRSC15783	5		inactive
CG5377	DRSC28892	4		inactive
CG31016	DRSC21359	14		inactive
CG31016	DRSC27353	4		inactive
PIP82	DRSC18694	19		inactive
PIP82	DRSC25335	3		inactive
CG32713	DRSC22766	11		inactive
CtsB (Cathepsin B)	DRSC19361	9		inactive
Adgf-C (Adenosine deaminase-related growth factor C)	DRSC16473	6		inactive
Adgf-C (Adenosine deaminase-related growth factor C)	DRSC27008	14		inactive
Gr32a (Gustatory receptor 32a)	DRSC02400	5		inactive
X11Lbeta	DRSC18156	5		inactive
X11Lbeta	DRSC18158	11		inactive
X11Lbeta	DRSC29533	4		inactive
CG15083	DRSC06514	11		inactive
CG14354	DRSC14817	6		inactive
Spn100A (Serpin 100A)	DRSC14596	2		inactive
CG2493	DRSC02707	3		inactive
Snp (Snipper)	DRSC04524	7		inactive
Snp (Snipper)	DRSC21538	5		inactive
CG1137	DRSC12529	4		inactive
CG1137	DRSC29434	2		inactive
CG5715	DRSC15860	11		inactive
CG5715	DRSC26011	6		inactive
Cyt-c1L (Cytochrome c1-like)	DRSC14860	10		inactive
Cyt-c1L (Cytochrome c1-like)	DRSC22096	4		inactive
Cyt-c1L (Cytochrome c1-like)	DRSC28229	5		inactive
ClC-a (Chloride channel-a)	DRSC14947	14		inactive
ClC-a (Chloride channel-a)	DRSC14948	4		inactive
ClC-a (Chloride channel-a)	DRSC16142	10		inactive
eIF5 (eukaryotic translation initiation factor 5)	DRSC20165	7		inactive
RyR (Ryanodine receptor)	DRSC07543	3		inactive
CG13991	DRSC02323	9		inactive
ssp (sunspot)	DRSC10252	10		inactive
CG10694	DRSC14263	5		inactive
Lst (Limostatin)	DRSC07146	7		inactive
Lst (Limostatin)	DRSC29304	11		inactive
Ddx1 (Dead-box-1)	DRSC11862	6		inactive
CG10265	DRSC05986	7		inactive
CG10265	DRSC21680	7		inactive
CG3062	DRSC18572	17		inactive
CG7335	DRSC10816	4		inactive
CG7335	DRSC26314	3		inactive
lama (lamina ancestor)	DRSC11361	13		inactive
CG32726	DRSC17521	9		inactive
CG2004	DRSC18200	5		inactive
CG15459	DRSC20530	14		inactive
CG15459	DRSC21383	8		inactive
CG15459	DRSC27861	9		inactive
PIG-G (Phosphatidylinositol glycan anchor biosynthesis class G)	DRSC06823	11		inactive
CG31223	DRSC15115	5		inactive
Usp14 (Ubiquitin specific protease 14)	DRSC02853	6		inactive
Usp14 (Ubiquitin specific protease 14)	DRSC26748	8		inactive
CG33120	DRSC02073	4		inactive
CG17217	DRSC02592	11		inactive
Hex-C (Hexokinase C)	DRSC07079	4		inactive
Hex-C (Hexokinase C)	DRSC24095	6		inactive
ND-49 (NADH dehydrogenase (ubiquinone) 49 kDa subunit)	DRSC17151	17		inactive
Irp-1A (Iron regulatory protein 1A)	DRSC16719	6	16	inactive
Damm (Death associated molecule related to Mch2 caspase)	DRSC07393	3		inactive
Grl65a (Gustatory receptor-like 65a)	DRSC08837	2		inactive
Grl65a (Gustatory receptor-like 65a)	DRSC25986	4		inactive
CG6184	DRSC15986	10		inactive

Next part; the last 2 above are carried over.
gene knocked down	DRSC id	mitotic cells, replicate 1	mitotic cells, replicate 2	call
Grl65a (Gustatory receptor-like 65a)	DRSC25986	4		inactive
CG6184	DRSC15986	10		inactive
Alp7 (Alkaline phosphatase 7)	DRSC04355	9		inactive
Alp7 (Alkaline phosphatase 7)	DRSC27071	4		inactive
Aprt (Adenine phosphoribosyltransferase)	DRSC08139	7		inactive
phu (phurba tashi)	DRSC16390	10		inactive
CG18139 (retired record) + Hmx	DRSC15307	7		inactive
Su(var)3-9 (Suppressor of variegation 3-9)	DRSC14484	5		inactive
Su(var)3-9 (Suppressor of variegation 3-9)	DRSC29176	3		inactive
Dph3 (Diphthamide biosynthesis 3)	DRSC14923	6		inactive
Dph3 (Diphthamide biosynthesis 3)	DRSC25545	10		inactive
ps (pasilla)	DRSC15149	7		inactive
ps (pasilla)	DRSC16388	12		inactive
ps (pasilla)	DRSC22989	9		inactive
ps (pasilla)	DRSC29315	10		inactive
ps (pasilla)	DRSC29574	14		inactive
Srp19 (Signal recognition particle 19)	DRSC11288	8		inactive
Srp19 (Signal recognition particle 19)	DRSC24706	4		inactive
CG17996 + Tsen2	DRSC02650	12		inactive
ringer (ringmaker)	DRSC10455	8		inactive
CG6283	DRSC16009	11		inactive
CG6283	DRSC29913	10		inactive
CG2812	DRSC04319	6		inactive
CG2812	DRSC28384	3		inactive
mst (misato)	DRSC20582	4		inactive
Spt-I (Serine palmitoyltransferase subunit I)	DRSC06860	3		inactive
Spt-I (Serine palmitoyltransferase subunit I)	DRSC26069	9		inactive
unpg (unplugged)	DRSC07713	8		inactive
unpg (unplugged)	DRSC28861	5		inactive
SIFa (SIFamide)	DRSC04480	2		inactive
Mst87F (Male-specific RNA 87F)	DRSC16747	1		inactive
Mst87F (Male-specific RNA 87F)	DRSC25350	5		inactive
Mat1 (Menage a trois 1)	DRSC07465	3		inactive
Mat1 (Menage a trois 1)	DRSC25955	4		inactive
CG32259	DRSC08082	4		inactive
CG15332	DRSC18015	7		inactive
CG15332	DRSC25660	10		inactive
gskt (gasket)	DRSC14056	5		inactive
gskt (gasket)	DRSC25861	4		inactive
CG42264	DRSC18074	18		inactive
CG42264	DRSC18075	6		inactive
CG42264	DRSC28051	1		inactive
CG2926	DRSC12321	1		inactive
Arpc3B (Actin-related protein 2/3 complex, subunit 3B)	DRSC20126	16		inactive
Arpc3B (Actin-related protein 2/3 complex, subunit 3B)	DRSC28523	1		inactive
CG14177 (retired record)	DRSC10176	5		inactive
CG14177 (retired record)	DRSC27883	10		inactive
CG11898	DRSC14432	8		inactive
CG11898	DRSC27906	6		inactive
Obp83a (Odorant-binding protein 83a)	DRSC12362	8		inactive
CG13810	DRSC08344	5		inactive
CG13810	DRSC22838	6		inactive
CG13810	DRSC27859	3		inactive
Pxt (Peroxinectin-like)	DRSC17040	4		inactive
coil (coilin)	DRSC07242	10		inactive
coil (coilin)	DRSC26055	1		inactive
Oatp30B (Organic anion transporting polypeptide 30B)	DRSC02727	4		inactive
CAH16 (Carbonic anhydrase 16)	DRSC15371	5		inactive
CAH16 (Carbonic anhydrase 16)	DRSC27986	3		inactive
CG13157	DRSC06282	6		inactive
mus101 (mutagen-sensitive 101)	DRSC19388	26		active
CG4456 + Hsp22	DRSC11187	5		inactive
CG4456 + Hsp22	DRSC11192	4		inactive
Or35a (Odorant receptor 35a)	DRSC03389	11		inactive
Syt7 (Synaptotagmin 7)	DRSC17130	16		inactive
Syt7 (Synaptotagmin 7)	DRSC17159	5		inactive
CG7781	DRSC03068	2		inactive
CG18788	DRSC02697	7		inactive
Rbcn-3B (Rabconnectin-3B)	DRSC18574	15		inactive
CG9150	DRSC03148	6		inactive
CG9150	DRSC25676	3		inactive
CG2685	DRSC18463	5		inactive
CG2685	DRSC27295	2		inactive
CG31220	DRSC22248	13		inactive
CG31220	DRSC24492	6		inactive
Ilp7 (Insulin-like peptide 7)	DRSC17895	6		inactive
Su(var)3-3 (Suppressor of variegation 3-3)	DRSC10250	10		inactive
Su(var)3-3 (Suppressor of variegation 3-3)	DRSC24846	3		inactive
CG14695	DRSC14918	7		inactive
